PubChem BioAssay AID1259425 | University of Nebraska Medical Center – 2018
Here is an unselected part of about 14,000 reagents. Not all columns of the deposit are shown. Not given: the time to read-out.

Purpose: 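Find knockdowns that reproduce the gene expression pattern seen when KSR1 is lost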 (primary screen)
Cells: HCT116 human colon cancer cells
Reagent: siRNA pool against human genes, 50 nM siRNA
Measured: 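After 50 nM siRNA pool, branched-DNA assay measures six marker transcripts per well, minus blank, normalised to the geometric mean of two housekeeping transcripts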
Reading the numbers: BNIP3L mRNA: higher = more BNIP3L transcript after knockdown

| gene knocked down | PubChem SID | BNIP3L mRNA, set 1 |
| --- | --- | --- |
| SLC37A4 | SID363992729 | 0.0801 |
| SNX10 | SID363998434 | 0.12 |
| PRELID1 | SID363998361 | 0.111 |
| AP1S1 | SID363992567 | 0.055 |
| TRIM44 | SID364000377 | 0.123 |
| TACR3 | SID363992356 | 0.238 |
| REG1B | SID363997304 | 0.0847 |
| MYF6 | SID363993643 | 0.152 |
| SLC35A1 | SID363997227 | 0.0426 |
| RTCB | SID363998737 | 0.0741 |
| NHLH1 | SID363996493 | 0.0913 |
| CHST6 | SID364002143 | 0.0815 |
| PAQR5 | SID364000457 | 0.143 |
| CAMP | SID363995333 | 0.103 |
| ORC5 | SID363993723 | 0.102 |
| PTPN23 | SID363999515 | 0.262 |
| GSTZ1 | SID363992771 | 0.0789 |
| LIPG | SID363996884 | 0.062 |
| COQ2 | SID363999655 | 0.19 |
| CHPF | SID364002855 | 0.3 |

Ordered by “BNIP3L mRNA, set 1” (highest first): some entries from above
| gene knocked down | PubChem SID | BNIP3L mRNA, set 1 |
| --- | --- | --- |
| MYF6 | SID363993643 | 0.152 |
| REG1B | SID363997304 | 0.0847 |
